Results: the supplement of paper PMC5836539
± gives the standard deviation of the averaged measurements. Repeats in this data set agree poorly, so a single value says little.

Amino acid sequences for entries named in this document (tags omitted). A change or cut given only in a name is not applied to a line headed by its entry.
UniProt Q5T4S7, whole entry, looked up: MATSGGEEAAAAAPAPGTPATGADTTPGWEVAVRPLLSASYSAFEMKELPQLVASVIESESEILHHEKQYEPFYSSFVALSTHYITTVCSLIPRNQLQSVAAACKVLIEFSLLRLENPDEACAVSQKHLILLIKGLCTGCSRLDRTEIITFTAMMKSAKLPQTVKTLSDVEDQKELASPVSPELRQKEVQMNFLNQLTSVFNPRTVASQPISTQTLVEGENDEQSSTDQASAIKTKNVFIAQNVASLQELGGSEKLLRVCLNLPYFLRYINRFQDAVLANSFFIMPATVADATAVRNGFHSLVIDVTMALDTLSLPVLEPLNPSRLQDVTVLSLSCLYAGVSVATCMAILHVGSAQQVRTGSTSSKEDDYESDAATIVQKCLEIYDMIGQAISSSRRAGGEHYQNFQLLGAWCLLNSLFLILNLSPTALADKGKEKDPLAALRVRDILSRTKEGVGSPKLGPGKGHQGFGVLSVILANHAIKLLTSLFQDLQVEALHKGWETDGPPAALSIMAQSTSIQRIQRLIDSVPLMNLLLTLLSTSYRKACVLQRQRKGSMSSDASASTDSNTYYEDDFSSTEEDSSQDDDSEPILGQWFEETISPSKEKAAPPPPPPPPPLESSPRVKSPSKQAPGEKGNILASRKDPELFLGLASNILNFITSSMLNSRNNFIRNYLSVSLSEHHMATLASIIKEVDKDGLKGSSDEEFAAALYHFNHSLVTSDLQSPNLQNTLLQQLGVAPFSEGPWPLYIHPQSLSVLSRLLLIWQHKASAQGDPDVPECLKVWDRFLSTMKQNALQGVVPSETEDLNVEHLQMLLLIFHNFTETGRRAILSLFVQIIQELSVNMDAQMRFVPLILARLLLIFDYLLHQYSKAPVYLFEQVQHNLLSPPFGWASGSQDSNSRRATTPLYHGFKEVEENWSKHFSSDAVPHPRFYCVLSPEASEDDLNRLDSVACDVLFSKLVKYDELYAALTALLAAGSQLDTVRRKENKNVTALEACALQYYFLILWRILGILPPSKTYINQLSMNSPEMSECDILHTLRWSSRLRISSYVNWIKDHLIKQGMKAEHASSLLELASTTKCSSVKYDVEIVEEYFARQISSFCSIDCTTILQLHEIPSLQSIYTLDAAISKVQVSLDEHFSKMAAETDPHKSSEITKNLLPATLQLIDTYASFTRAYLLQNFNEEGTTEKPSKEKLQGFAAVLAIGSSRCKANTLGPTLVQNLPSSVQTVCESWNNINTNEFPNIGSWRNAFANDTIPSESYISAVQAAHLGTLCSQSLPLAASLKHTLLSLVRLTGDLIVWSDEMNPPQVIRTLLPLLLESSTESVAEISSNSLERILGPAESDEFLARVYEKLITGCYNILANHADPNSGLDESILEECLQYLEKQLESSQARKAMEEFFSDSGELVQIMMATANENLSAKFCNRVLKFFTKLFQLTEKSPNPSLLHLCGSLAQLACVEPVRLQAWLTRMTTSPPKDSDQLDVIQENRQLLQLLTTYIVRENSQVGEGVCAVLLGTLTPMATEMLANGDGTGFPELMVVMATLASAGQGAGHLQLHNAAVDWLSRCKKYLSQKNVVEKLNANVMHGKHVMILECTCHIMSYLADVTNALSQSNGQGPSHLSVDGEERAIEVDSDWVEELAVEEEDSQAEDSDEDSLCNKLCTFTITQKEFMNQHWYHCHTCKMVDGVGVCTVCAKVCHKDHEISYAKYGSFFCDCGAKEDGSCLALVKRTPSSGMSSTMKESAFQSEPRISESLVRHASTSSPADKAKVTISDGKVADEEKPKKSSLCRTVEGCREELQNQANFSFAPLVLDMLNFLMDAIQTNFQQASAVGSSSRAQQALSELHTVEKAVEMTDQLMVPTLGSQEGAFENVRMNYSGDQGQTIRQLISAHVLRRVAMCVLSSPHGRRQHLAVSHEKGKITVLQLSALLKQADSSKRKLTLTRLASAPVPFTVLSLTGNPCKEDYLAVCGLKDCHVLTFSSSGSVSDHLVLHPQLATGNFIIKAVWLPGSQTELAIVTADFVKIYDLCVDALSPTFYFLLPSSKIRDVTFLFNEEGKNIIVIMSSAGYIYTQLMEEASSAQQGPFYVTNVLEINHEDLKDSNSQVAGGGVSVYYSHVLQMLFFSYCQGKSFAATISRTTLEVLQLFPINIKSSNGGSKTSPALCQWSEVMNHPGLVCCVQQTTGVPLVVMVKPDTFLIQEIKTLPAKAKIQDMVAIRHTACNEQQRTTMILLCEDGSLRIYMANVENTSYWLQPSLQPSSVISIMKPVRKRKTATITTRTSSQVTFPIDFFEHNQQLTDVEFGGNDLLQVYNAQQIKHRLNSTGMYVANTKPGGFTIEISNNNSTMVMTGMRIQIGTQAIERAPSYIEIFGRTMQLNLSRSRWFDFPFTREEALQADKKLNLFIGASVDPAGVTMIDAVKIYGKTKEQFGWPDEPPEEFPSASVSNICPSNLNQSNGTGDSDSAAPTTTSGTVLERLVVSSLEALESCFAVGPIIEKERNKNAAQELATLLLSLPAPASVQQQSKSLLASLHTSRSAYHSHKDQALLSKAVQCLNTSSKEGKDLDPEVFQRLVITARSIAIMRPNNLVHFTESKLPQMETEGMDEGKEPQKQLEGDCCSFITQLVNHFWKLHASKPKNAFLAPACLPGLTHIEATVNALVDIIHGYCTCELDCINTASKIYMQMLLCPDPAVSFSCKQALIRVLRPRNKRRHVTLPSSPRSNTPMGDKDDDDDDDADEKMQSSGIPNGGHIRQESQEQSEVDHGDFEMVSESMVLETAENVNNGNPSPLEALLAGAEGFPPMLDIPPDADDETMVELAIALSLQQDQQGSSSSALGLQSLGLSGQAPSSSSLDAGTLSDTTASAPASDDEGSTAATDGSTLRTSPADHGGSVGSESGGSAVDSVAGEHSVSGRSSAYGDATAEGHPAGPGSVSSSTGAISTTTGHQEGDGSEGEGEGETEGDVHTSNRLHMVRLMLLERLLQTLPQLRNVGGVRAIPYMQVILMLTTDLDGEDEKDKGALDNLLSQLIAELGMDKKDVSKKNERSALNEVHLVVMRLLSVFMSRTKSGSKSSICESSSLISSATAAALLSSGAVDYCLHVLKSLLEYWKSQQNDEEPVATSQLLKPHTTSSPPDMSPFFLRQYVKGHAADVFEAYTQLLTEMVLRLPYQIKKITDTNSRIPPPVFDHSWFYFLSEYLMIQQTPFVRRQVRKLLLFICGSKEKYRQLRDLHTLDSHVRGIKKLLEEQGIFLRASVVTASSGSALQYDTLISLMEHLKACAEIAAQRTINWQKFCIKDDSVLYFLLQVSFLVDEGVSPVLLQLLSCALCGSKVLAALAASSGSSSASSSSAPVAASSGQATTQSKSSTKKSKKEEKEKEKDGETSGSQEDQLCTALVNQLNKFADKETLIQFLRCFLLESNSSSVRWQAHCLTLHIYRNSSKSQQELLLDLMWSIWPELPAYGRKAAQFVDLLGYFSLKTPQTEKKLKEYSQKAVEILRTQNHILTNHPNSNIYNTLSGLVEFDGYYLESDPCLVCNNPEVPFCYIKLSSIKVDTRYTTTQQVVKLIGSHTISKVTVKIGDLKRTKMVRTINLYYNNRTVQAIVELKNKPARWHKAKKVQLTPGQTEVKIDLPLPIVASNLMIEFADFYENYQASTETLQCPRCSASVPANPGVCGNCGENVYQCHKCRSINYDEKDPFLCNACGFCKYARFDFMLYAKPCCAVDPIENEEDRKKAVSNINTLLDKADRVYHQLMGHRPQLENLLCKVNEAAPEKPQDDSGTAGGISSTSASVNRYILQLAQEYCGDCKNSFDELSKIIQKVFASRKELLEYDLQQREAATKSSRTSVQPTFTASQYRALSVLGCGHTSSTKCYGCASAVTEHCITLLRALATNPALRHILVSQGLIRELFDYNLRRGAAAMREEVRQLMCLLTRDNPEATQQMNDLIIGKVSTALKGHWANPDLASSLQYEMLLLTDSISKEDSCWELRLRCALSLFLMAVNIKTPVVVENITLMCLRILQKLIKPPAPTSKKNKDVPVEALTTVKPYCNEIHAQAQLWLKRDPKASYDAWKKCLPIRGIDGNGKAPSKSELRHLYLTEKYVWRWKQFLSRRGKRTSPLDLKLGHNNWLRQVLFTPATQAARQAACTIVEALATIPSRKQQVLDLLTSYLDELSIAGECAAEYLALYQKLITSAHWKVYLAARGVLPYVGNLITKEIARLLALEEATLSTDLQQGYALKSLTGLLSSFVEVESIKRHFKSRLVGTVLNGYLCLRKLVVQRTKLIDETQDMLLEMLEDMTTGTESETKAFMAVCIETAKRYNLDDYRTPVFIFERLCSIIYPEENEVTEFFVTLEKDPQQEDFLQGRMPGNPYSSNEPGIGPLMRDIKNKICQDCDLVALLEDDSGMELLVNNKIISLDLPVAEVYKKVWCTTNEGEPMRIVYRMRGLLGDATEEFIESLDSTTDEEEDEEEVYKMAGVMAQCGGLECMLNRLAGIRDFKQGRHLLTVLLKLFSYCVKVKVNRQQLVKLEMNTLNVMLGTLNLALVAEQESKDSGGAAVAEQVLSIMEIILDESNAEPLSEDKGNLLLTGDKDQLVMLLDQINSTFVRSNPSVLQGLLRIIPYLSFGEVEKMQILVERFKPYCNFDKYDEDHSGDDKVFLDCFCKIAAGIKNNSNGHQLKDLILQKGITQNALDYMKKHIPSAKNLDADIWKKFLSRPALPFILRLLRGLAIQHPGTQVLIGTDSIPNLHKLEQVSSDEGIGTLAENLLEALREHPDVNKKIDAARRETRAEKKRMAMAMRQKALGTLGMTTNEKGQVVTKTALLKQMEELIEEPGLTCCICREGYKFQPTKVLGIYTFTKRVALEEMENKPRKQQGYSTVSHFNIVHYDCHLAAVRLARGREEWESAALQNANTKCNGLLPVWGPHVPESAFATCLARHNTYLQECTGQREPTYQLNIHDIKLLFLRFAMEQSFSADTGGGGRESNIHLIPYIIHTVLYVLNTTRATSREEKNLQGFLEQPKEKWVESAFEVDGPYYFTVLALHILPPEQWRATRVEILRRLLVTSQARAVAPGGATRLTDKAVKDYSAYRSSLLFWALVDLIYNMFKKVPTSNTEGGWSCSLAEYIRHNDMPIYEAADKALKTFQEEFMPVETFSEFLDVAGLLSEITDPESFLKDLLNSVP
UniProt Q5VSL9: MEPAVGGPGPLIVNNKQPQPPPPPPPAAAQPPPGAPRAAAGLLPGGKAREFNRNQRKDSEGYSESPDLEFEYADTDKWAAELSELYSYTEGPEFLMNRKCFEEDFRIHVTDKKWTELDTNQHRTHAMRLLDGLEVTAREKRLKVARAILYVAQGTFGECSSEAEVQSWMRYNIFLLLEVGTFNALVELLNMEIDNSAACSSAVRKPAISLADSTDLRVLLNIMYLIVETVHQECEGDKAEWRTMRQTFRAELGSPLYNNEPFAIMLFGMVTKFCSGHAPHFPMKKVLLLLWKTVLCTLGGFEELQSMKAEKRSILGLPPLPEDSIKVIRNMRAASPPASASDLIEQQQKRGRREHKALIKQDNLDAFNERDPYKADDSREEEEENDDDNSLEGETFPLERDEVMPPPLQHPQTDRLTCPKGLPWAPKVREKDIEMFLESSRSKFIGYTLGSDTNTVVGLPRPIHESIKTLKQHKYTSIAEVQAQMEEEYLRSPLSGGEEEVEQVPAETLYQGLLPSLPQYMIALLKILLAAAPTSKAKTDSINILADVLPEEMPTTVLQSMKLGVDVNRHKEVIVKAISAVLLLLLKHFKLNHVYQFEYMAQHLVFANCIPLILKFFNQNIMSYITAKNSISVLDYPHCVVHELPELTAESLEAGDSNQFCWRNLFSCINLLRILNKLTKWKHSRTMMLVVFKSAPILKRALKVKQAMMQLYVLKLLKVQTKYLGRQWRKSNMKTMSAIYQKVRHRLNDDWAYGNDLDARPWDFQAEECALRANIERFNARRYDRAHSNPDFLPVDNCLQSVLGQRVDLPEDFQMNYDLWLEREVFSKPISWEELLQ
UniProt Q6A1A2: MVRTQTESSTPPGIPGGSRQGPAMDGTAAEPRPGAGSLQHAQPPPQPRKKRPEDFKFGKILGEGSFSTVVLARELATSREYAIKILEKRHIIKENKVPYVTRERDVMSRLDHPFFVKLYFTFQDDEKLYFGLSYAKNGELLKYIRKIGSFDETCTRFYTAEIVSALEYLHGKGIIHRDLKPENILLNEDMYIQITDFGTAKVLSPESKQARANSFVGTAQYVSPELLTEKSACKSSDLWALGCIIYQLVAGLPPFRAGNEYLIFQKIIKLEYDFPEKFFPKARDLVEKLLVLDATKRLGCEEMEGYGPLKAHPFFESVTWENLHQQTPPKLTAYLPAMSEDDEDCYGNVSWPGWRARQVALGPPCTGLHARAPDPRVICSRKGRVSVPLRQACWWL

Experiments:
XL888 [1] = compound: T1, CC[C@@H](C)Nc1cc(C(=O)N[C@H]2C[C@H]3CC[C@@H](C2)N3c2ccc(C(=O)C3CC3)cn2)c(C)cc1C(N)=O [XL888]; assay: phosphopeptide melting temperature shift (XL888 minus DMSO); higher = stabilised by drug treatment; conditions: 100 µM; treatment time 2 h; layout: intact cells; SK-Mel 28
Experimental: (§1)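 Phospho-TPP in intact SK-Mel 28 cells treated with 100 uM XL888 or DMSO for 2 h, heated at 10 temperatures (37-67 C) for 3 min, soluble fraction TMT10plex-labelled and TiO2 phospho-enriched. Melting curves were fitted per phosphopeptide; the value is the melting point difference (drug minus vehicle) in each of two biological replicates.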

XL888 [2] = compound: T1, XL888; assay: as above; conditions: 100 µM; treatment time 2 h; layout: intact cells; SK-Mel 24
Experimental: as §1, with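 “24” for “28”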

Target	phosphopeptide melting temperature shift (XL888 [1]) [°C]	phosphopeptide melting temperature shift (XL888 [2]) [°C]
UniProt P26639_phosphosite_8 (phosphosite position: 8)	0.462	0.215
UniProt P29590-2_phosphosite_527 (phosphosite position: 527)	0.409 ± 0.4	2.36
UniProt P29590-4_phosphosite_527 (phosphosite position: 527)	1.99 ± 1.7	2.36
UniProt P33316-2_phosphosite_11 (phosphosite position: 11)	1.45 ± 0.58	-0.287
UniProt P35580-2_phosphosite_1972 (phosphosite position: 1972)	1 ± 0.52	-0.28 ± 0.022
UniProt P35606-2_phosphosite_830 (phosphosite position: 830)	0.421 ± 0.4	0.311 ± 0.25
UniProt P36507_phosphosite_394 (phosphosite position: 394)	-0.783	-1.16
UniProt P40763-2_phosphosite_726 (phosphosite position: 726)	-1.2 ± 1.5	1.71
UniProt P46379-2_phosphosite_958 (phosphosite position: 958)	2.05	-0.271
UniProt P46937-5_phosphosite_109 (phosphosite position: 109)	6.85	4.08
UniProt P48634_phosphosite_1219 (phosphosite position: 1219)	0.671	0.861 ± 1.3
UniProt P51812_phosphosite_227 (phosphosite position: 227)	-0.337 ± 0.53	-0.405
UniProt P51812_phosphosite_369 (phosphosite position: 369)	0.307 ± 0.55	0.818
UniProt P52594-2_phosphosite_181 (phosphosite position: 181)	1.97	1.9
UniProt P52948-6_phosphosite_888 (phosphosite position: 888)	0.717	0.492
UniProt P56693_phosphosite_24 (phosphosite position: 24)	2.54 ± 0.79	3.41
UniProt P56693_phosphosite_45 (phosphosite position: 45)	0.165 ± 0.94	0.759 ± 0.92
UniProt P60174-1_phosphosite_21 (phosphosite position: 21)	0.253 ± 0.069	0.689 ± 0.27
UniProt P62258_phosphosite_210 (phosphosite position: 210)	-0.156 ± 0.2	0.714
UniProt P83916_phosphosite_89 (phosphosite position: 89)	1.04 ± 0.64	1.01 ± 0.33
UniProt P85037-2_phosphosite_50 (phosphosite position: 50)	0.841	0.949
UniProt P85037-2_phosphosite_282 (phosphosite position: 282)	1.23 ± 0.42	2.81

Four entries drawn at random from those above, as already listed:
Target	phosphopeptide melting temperature shift (XL888 [1]) [°C]	phosphopeptide melting temperature shift (XL888 [2]) [°C]
UniProt P35606-2_phosphosite_830 (phosphosite position: 830)	0.421 ± 0.4	0.311 ± 0.25
UniProt P26639_phosphosite_8 (phosphosite position: 8)	0.462	0.215
UniProt P62258_phosphosite_210 (phosphosite position: 210)	-0.156 ± 0.2	0.714
UniProt P29590-2_phosphosite_527 (phosphosite position: 527)	0.409 ± 0.4	2.36

The list continues.

Target	phosphopeptide melting temperature shift (XL888 [1]) [°C]	phosphopeptide melting temperature shift (XL888 [2]) [°C]
UniProt Q5JSH3-2_phosphosite_403 (phosphosite position: 403)	1.27	0.881
UniProt Q5JTD0-4_phosphosite_225 (phosphosite position: 225)	1.56	1.44
UniProt Q5JTH9-2_phosphosite_980 (phosphosite position: 980)	2.75 ± 2.6	0.735
UniProt Q5SSJ5-2_phosphosite_13 (phosphosite position: 13)	2.09	1.47
UniProt Q5T1M5-2_phosphosite_946 (phosphosite position: 946)	0.481 ± 0.86	1.36
UniProt Q5T4S7-3_phosphosite_1760 (phosphosite position: 1760)	-0.104 ± 0.6	-0.982 ± 0.085
UniProt Q5T4S7-3_phosphosite_2730 (phosphosite position: 2730)	0.519	1 ± 1
UniProt Q5T4S7-3_phosphosite_2735 (phosphosite position: 2735)	0.157 ± 0.53	1.04
UniProt Q5TCZ1-2_phosphosite_354 (phosphosite position: 354)	1.49	0.631
UniProt Q5TDH0-2_phosphosite_106 (phosphosite position: 106)	0.58 ± 0.33	-0.146
UniProt Q5VSL9_phosphosite_59 (phosphosite position: 59)	0.531 ± 0.56	0.226 ± 0.46
UniProt Q6A1A2_phosphosite_214 (phosphosite position: 214)	0.0232 ± 0.14	-0.897 ± 0.061
UniProt Q6ICG6-3_phosphosite_233 (phosphosite position: 233)	3.67	-1.32
UniProt Q6ICG6-3_phosphosite_245 (phosphosite position: 245)	1.29 ± 0.22	4.79
UniProt Q6ICG6-3_phosphosite_259 (phosphosite position: 259)	0.811	1.49
UniProt Q6ICG6-3_phosphosite_328 (phosphosite position: 328)	1.27 ± 0.7	0.528 ± 1.4
UniProt Q6IQ49-3_phosphosite_183 (phosphosite position: 183)	1.86 ± 1.7	0.183
UniProt Q6KC79-2_phosphosite_2658 (phosphosite position: 2658)	3.45	0.787
UniProt Q6NYC8_phosphosite_145 (phosphosite position: 145)	1.27 ± 0.43	0.674
UniProt Q6P6C2-3_phosphosite_53 (phosphosite position: 53)	-1.59 ± 0.43	-2.3
UniProt Q6PJT7-5_phosphosite_490 (phosphosite position: 490)	3.04	0.365
UniProt Q7Z5K2_phosphosite_77 (phosphosite position: 77)	0.785 ± 0.29	1.24
